No constants are given. Whether binding was seen depends on the method and setting. Some results given as binding are weak or reduced against the parent protein; the word gives no strength.
What follows are substances tested against extracellular domain of human receptor β-Klotho with a C-terminal Poly-His tag (human) (UniProt Q86Z14) (assay: SPR, Biacore-8K).

Amino acid sequences for entries named in this document (tags omitted). A change or cut given only in a name is not applied to a line headed by its entry. Residues count along the entry.
UniProt Q86Z14, residues 1-996: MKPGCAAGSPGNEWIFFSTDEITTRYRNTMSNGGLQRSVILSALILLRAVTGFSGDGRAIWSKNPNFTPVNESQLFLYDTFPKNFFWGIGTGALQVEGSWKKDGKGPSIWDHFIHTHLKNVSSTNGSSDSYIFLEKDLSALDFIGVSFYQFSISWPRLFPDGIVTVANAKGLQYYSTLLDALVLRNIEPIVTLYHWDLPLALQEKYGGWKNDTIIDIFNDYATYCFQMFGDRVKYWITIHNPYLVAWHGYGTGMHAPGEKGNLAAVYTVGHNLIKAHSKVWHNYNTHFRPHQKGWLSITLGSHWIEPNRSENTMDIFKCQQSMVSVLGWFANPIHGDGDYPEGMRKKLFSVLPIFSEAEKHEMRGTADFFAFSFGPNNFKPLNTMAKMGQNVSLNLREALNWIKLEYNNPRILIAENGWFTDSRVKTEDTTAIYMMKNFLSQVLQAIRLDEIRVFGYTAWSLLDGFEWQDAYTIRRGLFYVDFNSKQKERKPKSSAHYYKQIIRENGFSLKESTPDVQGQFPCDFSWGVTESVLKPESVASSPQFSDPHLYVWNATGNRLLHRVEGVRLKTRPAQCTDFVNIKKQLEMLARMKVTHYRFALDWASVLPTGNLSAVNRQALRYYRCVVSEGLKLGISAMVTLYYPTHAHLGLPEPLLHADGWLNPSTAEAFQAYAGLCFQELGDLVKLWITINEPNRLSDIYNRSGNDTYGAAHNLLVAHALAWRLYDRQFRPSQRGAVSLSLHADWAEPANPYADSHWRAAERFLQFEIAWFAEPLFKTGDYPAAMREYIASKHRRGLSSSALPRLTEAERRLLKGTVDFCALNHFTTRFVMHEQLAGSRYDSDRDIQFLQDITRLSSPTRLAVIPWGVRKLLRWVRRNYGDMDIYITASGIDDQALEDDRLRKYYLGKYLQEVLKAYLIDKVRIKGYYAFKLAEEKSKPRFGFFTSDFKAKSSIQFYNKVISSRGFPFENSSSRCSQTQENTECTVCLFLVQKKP
UniProt Q9NSA1: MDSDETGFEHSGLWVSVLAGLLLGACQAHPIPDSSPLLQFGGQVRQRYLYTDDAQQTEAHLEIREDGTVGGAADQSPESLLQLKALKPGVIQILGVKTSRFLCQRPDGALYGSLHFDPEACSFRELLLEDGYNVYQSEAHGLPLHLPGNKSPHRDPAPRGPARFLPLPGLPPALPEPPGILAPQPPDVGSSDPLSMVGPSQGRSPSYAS

Substance | binding
FGF21 (170C/Ins-172A/173C) mutant 1412 (from UniProt Q9NSA1 29-209) (ligand) | binds
FGF21 (170C/Ins-172S/173C) mutant 1413 (from UniProt Q9NSA1 29-209) (ligand) | binds
FGF21 (Del-P171) mutant 1408 (from UniProt Q9NSA1 29-209) (ligand) | binds
FGF21 (P171G) mutant 1407 (from UniProt Q9NSA1 29-209) (ligand) | binds

Results, then the substance that gave them:

binding | Substance
binds | FGF21 (170C/173C) mutant 1411 (from UniProt Q9NSA1 29-209) (ligand)
binds | FGF21 (170C/Ins-172G/173C) mutant 1409 (from UniProt Q9NSA1 29-209) (ligand)

From patent US20240376168A1
